Converted amounts (≈) assume the structure as drawn.

What all share (assay): MIC broth dilution, antibacterial activity
Common to all, as to assay type: cell-based
On the technique in general: Broth dilution looks for growth in wells or tubes with falling amounts of substance.

The subject of experiment [1] is S. aureus ATCC ™ 6538P (MSSA). The settings on record: Staphylococcus aureus, MH medium, 35° C., 16 to 20 hours.
Experiment [2] deals with S. aureus MRS3 ATCC ™ 700699 (MRSA-hVISA). The settings on record: Staphylococcus aureus, MH medium, 35° C., 16 to 20 hours.
Experiment [3] deals with S. epidermidis ATCC ™ 12228. Conditions: Staphylococcus epidermidis, ATCC12228, MH medium, 35° C., 16 to 20 hours.
Experiment [4] deals with Enterococcus faecalis ATCC ™ 29212 (VSE). The settings on record: ATCC29212, BHI+ medium.
Experiment [5] has as its system Enterococcus faecalis ATCC ™ 51299 (VRE). The settings on record: BHI+ medium.

One may read the MIC as the least concentration at which growth counts as inhibited. Consider `CN[C@H](CC(C)C)C(=O)N[C@H]1C(=O)N[C@@H](CC(N)=O)C(=O)N[C@H]2C(=O)N[C@H]3C(=O)N[C@H](C(=O)N[C@H](C(=O)O)c4cc(O)cc(O)c4-c4cc3ccc4O)[C@H](O)c3ccc(c(Cl)c3)Oc3cc2cc(c3O[C@@H]2O[C@H](CO)[C@@H](O)[C@H](O)[C@H]2O[C@H]2C[C@](C)(N)[C@H](O)[C@H](C)O2)Oc2ccc(cc2Cl)[C@H]1O` [Vancomycin, reference compound], for which the MIC in experiment [1] amounted to 1 µg/mL (≈ 0.69 µM); in experiment [2], 4 µg/mL (≈ 2.76 µM); in experiment [3], 2 µg/mL (≈ 1.38 µM); in experiment [4], 4 µg/mL (≈ 2.76 µM); in experiment [5], 32 µg/mL (≈ 22.1 µM).

For the origin of these results see patent US8076287B2, “Cyclic hexadepsipeptides, processes for their production and their use as pharmaceuticals” (priority 2006, dated 2011).
